Assay results as given in paper PMC8138767, “Intrinsically disordered substrates dictate SPOP subnuclear localization and ubiquitination activity” (The Journal of Biological Chemistry, 2021).
Results are given in words; binding and its absence hold for the method and conditions named. Some binding calls cover weakened binding; strength is not graded here.

Protein sequences, listed by entry. Tags and fused reporters are not part of them. Lines headed by an entry give the natural chain unless they say otherwise; changes in a name come on top. Chains listed by the source or under a name are the forms on record and can include a tag or linker. Residues count along the entry.
SPOP-MATH (human SPOP residues 28-166) (O43791, form named): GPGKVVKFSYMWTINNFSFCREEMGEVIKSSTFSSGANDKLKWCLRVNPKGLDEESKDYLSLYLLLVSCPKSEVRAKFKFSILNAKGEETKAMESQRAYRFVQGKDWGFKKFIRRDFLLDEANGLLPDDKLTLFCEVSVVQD

Assays:
[1] = molecular target: SPOP-MATH (human SPOP residues 28-166) (human) (UniProt O43791); assay: NMR titration; Pdx1 peptides added to 0.1-0.2 mM ^15N–SPOP–MATH at 4:1 peptide:SPOP; ^1H, ^15N HSQC; 50 mM sodium phosphate pH 6.5, 50 mM NaCl, 5 mM DTT; both purified
[2] = molecular target: SPOP-MATH (human SPOP residues 28-166) (human) (UniProt O43791); assay: NMR titration; Pdx1 peptides added 4:1 to 0.1-0.2 mM 15N-SPOP-MATH, alone or both together; 1H,15N HSQC; 50 mM sodium phosphate pH 6.5, 50 mM NaCl, 5 mM DTT; both purified

binding [1] | binding [2] | Binder
binds |  | GVAEPEQDCAVTSGEELLALPP (N-terminal acetyl (Ac-)) [Pdx1–SBM1 peptide]
 | binds | GVAEPEQDCAVTSGEELLALPP (N-terminal acetyl (Ac-)) [Pdx1-SBM1 peptide (used for NMR)]
 | binds | LSASPQPSSVAPRRPQEPR (N-terminal acetyl (Ac-)) [Pdx1-SBM2 peptide (human Pdx1 residues 265-283)]
